The other results are listed elsewhere or left out. These are further read-outs of the screen, such as a control signal, another cell line or another target. No call is given for them. Most of these compounds were active or inconclusive in the main read-out, so they are no random draw. Potencies come from curve fits of mixed quality, noted in brackets.
Assay: qHTS Assay for Lipid Storage Modulators in Drosophila S3 Cells;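 for cell number change: cells counted by Cell Tracker Red CMTPX staining in the red channel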
Details: BODIPY lipid droplet fluorescence, 18-24 h; for cell number change: measured here: cell count max response, cells fed with added oleic acid; for AC50: measured here: lipid fluorescence (Fed channel) AC50, cells fed with added oleic acid
Outline: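 Drosophila S3 cells loaded with oleic acid (400 uM, as added) and compounds at several concentrations; lipid droplets imaged by 488-nm laser-scanning cytometry, 500–530 nm intensity and object ratio to cell channel. Percent activity normalized to 20 uM Triacsin C.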

Row | Compound | cell number change [%] | AC50
1 | O=C(COc1ccc(Cl)cc1)Nc1cc(NC(=O)COc2ccc(Cl)cc2)cc(C(=O)O)c1 | 2.65 | 20.6 µM [rising, partial curve]
2 | COc1cc(NS(=O)(=O)c2ccc(NC(=S)NC(=O)c3sc4ccccc4c3Cl)cc2)nc(OC)n1 | -11 | 20.6 µM [falling, single point]

Source: PubChem BioAssay AID2685 (National Center for Advancing Translational Sciences (NCATS), 2010)
